Literature values as cited in PMC8074792, “An ω-3, but Not an ω-6 Polyunsaturated Fatty Acid Decreases Membrane Dipole Potential and Stimulates Endo-Lysosomal Escape of Penetratin” (Frontiers in Cell and Developmental Biology, 2021).

Parameters: method as in Batta et al., 2020
Conditions: lowering DP with the agent; ref Batta et al., 2020; cited from earlier work
Text: One of the most widely studied cellular functions influenced by the magnitude of DP is the cellular binding and uptake of certain substances including drugs ([Asawakarn et al., 2001]), β-amyloid ([Hertel et al., 1997]) and other peptides ([Cladera and O’Shea, 1998]; [Zhan and Lazaridis, 2012]). […] Although cell-penetrating peptides are promising therapeutic tools for de ...

## CC(C)c1c(C(=O)Nc2ccccc2)c(-c2ccccc2)c(-c2ccc(F)cc2)n1CC[C@@H](O)C[C@@H](O)CC(=O)O [atorvastatin]
  cellular uptake and endo-lysosomal escape of penetratin: increased
